Data taken from the supplement of paper PMC10735217.
Structures can show the parent of a compound that is named as a salt. The list shows a part of the results. Repeats in this data set agree poorly, so a single value says little.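 Human kidney-derived cells stably carry a construct in which eight TEAD-binding elements drive luciferase, measured by luminescence in a drug-repurposing library screen. A hit is any compound whose signal exceeds the plate mean by more than five robust Z scores.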

Tested on: HEK293A TEAD-LUC reporter
Assay: TEAD-luciferase reporter activity (YAP activation), robust Z score vs plate; higher = stronger YAP/TEAD activation
Details: 24 h

Compound | TEAD-luciferase reporter activity (compound concentration: 200 nM) | TEAD-luciferase reporter activity (compound concentration: 2 uM) | TEAD-luciferase reporter activity (compound concentration: 10 uM)
Cc1c(CN2CCN(c3cccc(C(F)(F)F)c3)CC2)cc(-c2ccccc2)n1NC(=O)c1ccncc1 | inactive: 0.781 | inactive: 0.607 | inactive: -1.61
CC(C)(C)c1ccc(OCC(O)COc2ccc(C(=O)O)cc2)cc1 (stereo not given) [terbufibrol] | inactive: -0.993 | inactive: -1.27 | inactive: -0.52
CCN(CC)CCC(=O)N1c2ccccc2Sc2ccc(C(F)(F)F)cc21 | inactive: -0.904 | inactive: 1.07 | inactive: -0.209
OC[C@H]1O[C@@H](OC[C@H]2O[C@@H](O[C@@H]3[C@@H](O)[C@H](O)O[C@H](CO)[C@H]3O)[C@H](O)[C@@H](O[C@@H]3O[C@H](CO)[C@@H](O)[C@H](O)[C@H]3O)[C@@H]2O)[C@H](O)[C@@H](O)[C@@H]1O [Schizophyllan] | inactive: 0.901 | inactive: -0.353 | inactive: 1.3
CC(C)(C)COc1ccc(-n2cc(C(=O)O)cn2)cc1C#N [Piraxostat] | active: 5.42 | inactive: -1.68 | inactive: 0.855
O=C(O)C[C@H](NC(=O)N[C@@H](CSCc1ccccc1)CSc1ccccc1)c1ccc2c(c1)OCO2 | inactive: -1.91 | inactive: -1.46 | inactive: -1.53
O=C(c1ccc2nccnc2c1)N1CCCCC1 | inactive: 0.556 | inactive: -0.589 | inactive: 2.19
O=C1NC(=O)[C@@H](c2cn3c4c(cccc24)CCC3)[C@@H]1c1c[nH]c2ccccc12 [tivantinib] | – | inactive: 0.949 | –
O=C1NC(=O)[C@@H](c2cn3c4c(cccc24)CCC3)[C@@H]1c1c[nH]c2ccccc12 [Tivantinib (ARQ 197)] | inactive: -0.71 | – | inactive: -0.0378
O=C(O)/C=C/C(=O)O [Fumaric Acid] | – | inactive: 0.0447 | –
O=C(O)/C=C/C(=O)O [fumaric acid] | inactive: 0.535 | – | inactive: -1.63
COc1ccc(NC(=O)C2CCN(C(=O)Cn3c(=O)sc4ccc(Cl)cc43)CC2)cc1 | inactive: -1.37 | inactive: -0.314 | inactive: -0.286
CC(C)=CCC[C@](C)(O)[C@@H]1CC=C(C)CC1 [Levomenol] | inactive: -0.496 | inactive: -0.909 | inactive: 1.54
Cc1ccc(-n2nc(C(C)(C)C)cc2NC(=O)Nc2ccc(-c3ccc(CN4CCOCC4)nc3)c3ccccc23)cc1 | inactive: -0.557 | inactive: 0.135 | inactive: 2.08
FC1(F)C(F)(F)C(F)(F)C2(F)C(F)(F)C(F)(F)C(F)(F)C(F)(F)C2(F)C1(F)F (stereo not given) [Perflunafene] | inactive: -1.35 | inactive: -1.37 | inactive: 0.053
O=P([O-])([O-])OC[C@H]1O[C@](O)(COP(=O)([O-])O)[C@@H](O)[C@@H]1O | inactive: -0.61 | inactive: -1.4 | inactive: 1
CN1CCC(=C2c3ccccc3CCc3ccc(C(=O)O)cc32)CC1 | inactive: 2.03 | inactive: 0.722 | inactive: 0.464
c1ccc(-c2cc(CCC3CCNCC3)c3ccccc3n2)cc1 [pipequaline] | inactive: -0.423 | inactive: 0.631 | inactive: -0.692
Cc1cc(-c2nc(CN3CCNCC3)no2)cc2c1C(=O)N(Cc1ccc(OC(F)(F)F)cc1)C2 | inactive: -0.671 | inactive: -0.318 | inactive: -0.296
Cc1ccc(/C(=C\CN2CCCC2)c2ccccn2)cc1 [Triprolidine hydrochloride] | inactive: -1.62 | inactive: -0.693 | inactive: -0.816
O=C1[O][Pt]2(<-[NH2]C[C@H]3CCC[NH]->23)[O]C(=O)C12CCC2 | inactive: -1.33 | – | inactive: 0.72
O=C(NNCNNC(=O)c1ccncc1)c1ccncc1 | inactive: 0.516 | inactive: -2.2 | inactive: -0.009
COc1cc(C(=O)C(=O)N2CCCC[C@H]2C(=O)OC(CCCc2cccnc2)CCCc2cccnc2)cc(OC)c1OC | inactive: -2.67 | inactive: -1.33 | inactive: -0.119
CCCCc1cc(OC)c2ccccc2c1OC(C)=O [Bunaprolast] | inactive: 3.42 | inactive: 0.483 | inactive: -0.444
O=C1NC(=O)C(S(=O)(=O)c2ccc3ccccc3c2)S1 (stereo not given) | inactive: -0.611 | inactive: -1.66 | inactive: -0.0949
CCC(C)n1ncn(-c2ccc(N3CCN(c4ccc(OCC5COC(Cn6cncn6)(c6ccc(F)cc6F)O5)cc4)CC3)cc2)c1=O (stereo not given) | inactive: -1.73 | inactive: -1.27 | inactive: -0.398
CC(C)(C(=O)O)c1ccc(C(=O)CCCN2CCC(OC(c3ccccc3)c3ccccc3)CC2)cc1 [Carebastine] | inactive: -0.948 | inactive: 0.645 | inactive: 0.254

Quoted at random: 2 entries already listed.
Compound | TEAD-luciferase reporter activity (compound concentration: 200 nM) | TEAD-luciferase reporter activity (compound concentration: 2 uM) | TEAD-luciferase reporter activity (compound concentration: 10 uM)
O=C1NC(=O)C(S(=O)(=O)c2ccc3ccccc3c2)S1 (stereo not given) | inactive: -0.611 | inactive: -1.66 | inactive: -0.0949
CC(C)(C)COc1ccc(-n2cc(C(=O)O)cn2)cc1C#N [Piraxostat] | active: 5.42 | inactive: -1.68 | inactive: 0.855

(further entries)

Compound | TEAD-luciferase reporter activity (compound concentration: 200 nM) | TEAD-luciferase reporter activity (compound concentration: 2 uM) | TEAD-luciferase reporter activity (compound concentration: 10 uM)
C[C@H]1Oc2cc(cnc2N)-c2c(nn(C)c2C#N)CN(C)C(=O)c2ccc(F)cc21 | inactive: 0.451 | inactive: -1.8 | inactive: 2.09
C[C@]12C=CC(=O)C=C1CC[C@@H]1[C@@H]2[C@@H](O)C[C@@]2(C)[C@H]1CC[C@]2(O)C(=O)COC(=O)c1ccc(CO[N+](=O)[O-])cc1 | inactive: -0.858 | inactive: -1.07 | inactive: -1.06
N=C(N)c1ccc(/N=N/Nc2ccc(C(=N)N)cc2)cc1 [diminazene diaceturate] | inactive: 0.662 | – | inactive: 0.939
N=C(N)c1ccc(/N=N/Nc2ccc(C(=N)N)cc2)cc1 [Diminazene Aceturate] | – | inactive: -1.41 | –
NCC(=O)Oc1ccc2c3c(cccc13)OC1(C=CC(=O)c3c(O)cccc31)O2 (stereo not given) | inactive: -1.2 | inactive: 0.139 | inactive: 2.87
CC(=O)N1Cc2ccccc2CC2(CCCN2Cc2ccccc2)C1 (stereo not given) | inactive: 0.473 | – | inactive: 1.2
CN1CCCCC1CCN1c2ccccc2Sc2ccc(S(C)=O)cc21 (stereo not given) [Mesoridazine] | inactive: -0.534 | – | inactive: 2.86
CN1CCCCC1CCN1c2ccccc2Sc2ccc(S(C)=O)cc21 (stereo not given) | – | inactive: -1.19 | –
O=Cc1cccc(N2CCN(C(=O)Nc3ccccc3)CC2=O)c1 | inactive: 0.0234 | – | inactive: 0.664
CCOC(=O)CCNC(=O)N[C@H]1CCN(c2ccc(C(=N)NO)cc2)C1=O | inactive: -0.554 | inactive: -0.259 | inactive: -0.352
CC(C)Cn1nnnc1-c1cccc(N)c1 | inactive: 0.8 | inactive: -0.0109 | inactive: -0.478
Clc1ccc(C(Cn2ccnc2)OCc2ccsc2Cl)c(Cl)c1 (stereo not given) [tioconazole] | inactive: -0.793 | inactive: -0.475 | inactive: 2.64
CC(C)C[C@H](NC(=O)[C@@H](Cc1ccc2ccccc2c1)NC(=O)[C@H](Cc1ccc(O)cc1)NC(=O)[C@H](CO)NC(=O)[C@H](Cc1c[nH]c2ccccc12)NC(=O)[C@H](Cc1c[nH]cn1)NC(=O)[C@@H]1CCC(=O)N1)C(=O)N[C@@H](CCCNC(=N)N)C(=O)N1CCC[C@H]1C(=O)NCC(N)=O [Nafarelin] | inactive: -1.29 | – | inactive: -0.914
CC[C@H](C)Nc1nc(C)nc2c(-c3c(C)cc(OC)cc3OC)c(C)nn12 | inactive: -0.0145 | inactive: -1.46 | inactive: 0.882
C[C@]12CC[C@@H]3c4ccc(O)cc4CC[C@H]3[C@@H]1C[C@H]1O[C@H]12 | inactive: -0.803 | inactive: -0.678 | inactive: -1.23
Cc1ccc(S(=O)(=O)[N-]c2n[n+](-c3cccc(Cl)c3C)no2)cc1 | inactive: -1.36 | inactive: 1.13 | inactive: -0.525
NC(=O)N(O)C[C@H]1COc2ccc(Oc3ccc(F)cc3)cc2O1 | inactive: 1.05 | inactive: -0.315 | inactive: 0.474
COC(=O)C(Cc1ccc(CCOc2ccc(OS(C)(=O)=O)cc2)cc1)SCCc1ccc(O)cc1 (stereo not given) | inactive: 0.0135 | inactive: -1.58 | inactive: 1.06
CCN(CC)CC#CCC1(C)c2ccccc2-c2ccccc21 | inactive: -2.05 | inactive: 0.828 | inactive: 1.56
CCOC(=O)CC1COc2ccc(NC(=O)c3ccc(C(=N)N4CCOCC4)cc3)cc2C1 (stereo not given) | inactive: -1.53 | inactive: 0.983 | inactive: 0.0433
O=C1CC2(CCCC2)C(O)C(=O)N1CCCCN1CCN(c2ncccn2)CC1 (stereo not given) [6-Hydroxybuspirone] | inactive: 0.557 | inactive: -2.22 | inactive: 1.93
CN/C(=N\S(=O)(=O)N1CCCCC1)N1C[C@@H](c2ccccc2)C(c2ccc(Cl)cc2)=N1 | inactive: -0.25 | inactive: -0.839 | inactive: 1.14
COc1ccc(OCC(F)(F)C(F)F)c(C(=O)O)c1 | inactive: -2.35 | inactive: 0.138 | inactive: -0.454
CCC(=O)O[C@]1(C(=O)CCl)[C@@H](C)C[C@H]2[C@@H]3CCC4=CC(=O)C=C[C@]4(C)[C@@]3(F)[C@@H](O)C[C@@]21C [Clobetasol propionate] | inactive: -0.267 | – | inactive: 1.76
CCC(=O)O[C@]1(C(=O)CCl)[C@@H](C)C[C@H]2[C@@H]3CCC4=CC(=O)C=C[C@]4(C)[C@@]3(F)[C@@H](O)C[C@@]21C [clobetasol propionate, Foamix] | – | inactive: 0.426 | –
N#Cc1cnn2c1N(C(=O)CN1CCN(Cc3ccccc3)CC1)CC=C2c1cccc(C(F)(F)F)c1 | inactive: -0.525 | inactive: -0.978 | inactive: 0.925
